From patent US11976042B1, “9-(5-bromo-2-hydroxyphenyl)-10-[3-(dimethylamino)propyl]-3,4,6,7,9,10-hexahydroacridine-1,8(2H,5H)-dione as an antimicrobial compound” (KING FAISAL UNIVERSITY, priority 2023, dated 2024)
At least one structure is not confirmed: it was looked up by name or label, or the drawing left a doubt.

Legend:
Experiment in all cases: antimicrobial activity by agar dilution
Type in all cases: cell-based
Candida albicans = system: Candida albicans
Procedure: (§1) The antimicrobial properties of the synthesized compound 9-(5-bromo-2-hydroxyphenyl)-10-[3-(dimethylamino)propyl]-3,4,6,7,9,10-hexahydroacridine-1,8(2H,5H)-dione were studied by the method of agar dilution. Test solutions of each compound were prepared in a concentration of 1% using dimethylformamide as a solvent. Then they were diluted in a physiological solution to obtain the final experimental dilutions 1:100, 1:200, 1:400, and 1:800. The effect of these substances were compared with furacillin in a controllable study. The testing microbes used were gram positive bacteria St. Aereus, gram negative bacteria E. Coli and Ps. Aeruginosa, and Candida albicans fungi. The experiments used for this survey were meat-pentonlu agar (EPA) for cultivation of bacteria and Saburo environment for fungi. Each experiment used 1 ml of test solution on each plate 500 min. Add 2 drops of emulsified with microbes feel. All experimental samples were taken from the agar after 10, 20, 40, 60 minutes in the environment on the basis of Patrk planted. Bacteria were cultivated at a temperature of 37° C. for 1 day and the mushroom was kept in a thermostat for […] at a temperature of 28° C. Then the results were checked.

E. Coli = system: E. Coli
Procedure: as §1

Ps. Aeruginosa = system: Ps. Aeruginosa
Procedure: as §1

St. Aereus = system: St. Aereus
Procedure: as §1

[1] = dilution rate 1:100, exposure time 10 min
[2] = dilution rate 1:100, exposure time 20 min
[3] = dilution rate 1:100, exposure time 40 min
[4] = dilution rate 1:100, exposure time 60 min
[5] = dilution rate 1:200, exposure time 10 min
[6] = dilution rate 1:200, exposure time 20 min
[7] = dilution rate 1:200, exposure time 40 min
[8] = dilution rate 1:200, exposure time 60 min
[9] = dilution rate 1:400, exposure time 10 min
[10] = dilution rate 1:400, exposure time 20 min
[11] = dilution rate 1:400, exposure time 40 min
[12] = dilution rate 1:400, exposure time 60 min
[13] = dilution rate 1:800, exposure time 10 min
[14] = dilution rate 1:800, exposure time 20 min
[15] = dilution rate 1:800, exposure time 40 min
[16] = dilution rate 1:800, exposure time 60 min

For `NC(=O)N/N=C/c1ccc([N+](=O)[O-])o1` [Furacilin], the antimicrobial activity (Candida albicans; [1]) was “−”, the antimicrobial activity (Candida albicans; [2]) was “−” and the antimicrobial activity (Candida albicans; [3]) was “+”. For the same compound, the antimicrobial activity (Candida albicans; [4]) was “+”, the antimicrobial activity (Candida albicans; [5]) was “+” and the antimicrobial activity (Candida albicans; [6]) was “+”. The antimicrobial activity (Candida albicans; [7]) was “+”, the antimicrobial activity (Candida albicans; [8]) was “+” and the antimicrobial activity (Candida albicans; [9]) was “+”. The antimicrobial activity (Candida albicans; [10]) was “+”, the antimicrobial activity (Candida albicans; [11]) was “+” and the antimicrobial activity (Candida albicans; [12]) was “+”. The antimicrobial activity (Candida albicans; [13]) was “+”, the antimicrobial activity (Candida albicans; [14]) was “+” and the antimicrobial activity (Candida albicans; [15]) was “+”. The antimicrobial activity (Candida albicans; [16]) was “+”, the antimicrobial activity (E. Coli; [1]) was “−” and the antimicrobial activity (E. Coli; [2]) was “−”. The antimicrobial activity (E. Coli; [3]) was “−”, the antimicrobial activity (E. Coli; [4]) was “−” and the antimicrobial activity (E. Coli; [5]) was “+”. The antimicrobial activity (E. Coli; [6]) was “+”, the antimicrobial activity (E. Coli; [7]) was “+” and the antimicrobial activity (E. Coli; [8]) was “+”. For the same compound, the antimicrobial activity (E. Coli; [9]) was “+”, the antimicrobial activity (E. Coli; [10]) was “+” and the antimicrobial activity (E. Coli; [11]) was “+”. For the same compound, the antimicrobial activity (E. Coli; [12]) was “+”, the antimicrobial activity (E. Coli; [13]) was “+” and the antimicrobial activity (E. Coli; [14]) was “+”. The antimicrobial activity (E. Coli; [15]) was “+”, the antimicrobial activity (E. Coli; [16]) was “+” and the antimicrobial activity (Ps. Aeruginosa; [1]) was “+”. For the same compound, the antimicrobial activity (Ps. Aeruginosa; [2]) was “+”, the antimicrobial activity (Ps. Aeruginosa; [3]) was “+” and the antimicrobial activity (Ps. Aeruginosa; [4]) was “+”. The antimicrobial activity (Ps. Aeruginosa; [5]) was “+”, the antimicrobial activity (Ps. Aeruginosa; [6]) was “+” and the antimicrobial activity (Ps. Aeruginosa; [7]) was “+”. For the same compound, the antimicrobial activity (Ps. Aeruginosa; [8]) was “+”, the antimicrobial activity (Ps. Aeruginosa; [9]) was “+” and the antimicrobial activity (Ps. Aeruginosa; [10]) was “+”. For the same compound, the antimicrobial activity (Ps. Aeruginosa; [11]) was “+”, the antimicrobial activity (Ps. Aeruginosa; [12]) was “+” and the antimicrobial activity (Ps. Aeruginosa; [13]) was “+”. For the same compound, the antimicrobial activity (Ps. Aeruginosa; [14]) was “+”, the antimicrobial activity (Ps. Aeruginosa; [15]) was “+” and the antimicrobial activity (Ps. Aeruginosa; [16]) was “+”. The antimicrobial activity (St. Aereus; [1]) was “−”, the antimicrobial activity (St. Aereus; [2]) was “−” and the antimicrobial activity (St. Aereus; [3]) was “−”. The antimicrobial activity (St. Aereus; [4]) was “−”, the antimicrobial activity (St. Aereus; [5]) was “+” and the antimicrobial activity (St. Aereus; [6]) was “+”. For the same compound, the antimicrobial activity (St. Aereus; [7]) was “+”, the antimicrobial activity (St. Aereus; [8]) was “+” and the antimicrobial activity (St. Aereus; [9]) was “+”. For the same compound, the antimicrobial activity (St. Aereus; [10]) was “+”, the antimicrobial activity (St. Aereus; [11]) was “+” and the antimicrobial activity (St. Aereus; [12]) was “+”. For the same compound, the antimicrobial activity (St. Aereus; [13]) was “+”, the antimicrobial activity (St. Aereus; [14]) was “+” and the antimicrobial activity (St. Aereus; [15]) was “+”. For the same compound, the antimicrobial activity (St. Aereus; [16]) was “+”.
